Experimental data reported in patent US20210169077A1, “METHOD FOR IMPROVING SEED GERMINATION AND/OR PLANT TOLERANCE TO ENVIRONMENTAL STRESS” (DANSTAR FERMENT AG, priority 2017, published 2021).
Where “and” joins values, the source holds several entries; their conditions need not be identical. Equal entries are not always repeated.

Tested on: corn plant Variety 1
Assay: Seed weight after treatment with glycine-betaine compared to non-treated seed weight
Format: in vivo
Conditions: corn Variety 1; Rep 1-3

With `C[N+](C)(C)CC(=O)[O-]` [GB, N,N,N-trimethylglycine] the “Seed weight, Mean GB (plants treated with GB)” value was 532.96 g and 317.39 g and 363.11 g.
